# From PubChem BioAssay AID624297 (National Center for Advancing Translational Sciences (NCATS), 2012)
# In all, about 340,000 compounds went through this assay and about 6,200 (1.8%) were called active. Inconclusive means that the source gave no clear call. Such entries were picked first, then a sample of the others. Calls follow the shape of the dose curve; as a rule, active = well fitted activation curve with a large enough effect; inconclusive = small, poorly fitted or top-dose-only effect; inactive = no such curve, though single readings can be large or run the other way. Potencies beside an inconclusive call are fits to weak or partial responses and may not hold up.
# Experiment: A quantitative high throughput screen for small molecules that induce DNA re-replication in SW480 colon adenocarcinoma cells. Also: nearly all actives have a fitted effect of over 55% in size. As to re-replication activation: % of control where 0% means no effect.
# Details: Hoechst DNA content imaging, 48 h; re-replication activation: at 46.1 µM (top of the series) unless noted
# Outline: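 Hoechst fluorescence of nuclei (405 nm excitation, 500-530 nm emission) measured by plate-scanning imager after 48 hr compound exposure at 37 C; re-replication scored as increased number of nuclei with elevated intensity.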
# Potency is read from the fitted curve at half-maximal effect.
SMILES,re-replication activation,Potency
CC(C)CC(=O)NC(=S)NCCc1ccccc1,inactive: -5.45% [at 9.22 µM],
CCCCCOP(=O)(OCCCCC)C1(NS(=O)(=O)c2ccccc2)C=CC(=O)c2ccccc21 (centres undefined),,"inconclusive: 29.1 µM [activator, single point]"
CC(=O)CC(=O)NC(=NC1CCCCC1)Nc1nc(C)cc(C)n1,,"inconclusive: 16.4 µM [activator, single point]"
COc1cc(/C=C(\C#N)c2nc3ccc(C)cc3[nH]2)c([N+](=O)[O-])cc1OC,,inactive
O=C(Nc1ccc(NC(=O)c2ccc(Cl)cc2Cl)cc1)c1cccs1,,inactive
O=C(NCC(c1ccco1)N1CCc2ccccc2C1)C(=O)Nc1ccc(F)cc1F (centres undefined),,inactive
O=C(O)c1ccccc1NC(c1ccccc1)c1ccc2cccnc2c1O (centres undefined),,"inconclusive: 29.1 µM [activator, partial curve, poor fit]"
COc1cccc(OCCCn2cc(/C=C3/C(=N)N4C=C(C)SC4=NC3=O)c3ccccc32)c1,,inactive
C=CC[C@@H]1C=C[C@H](O/N=C/c2ccc(C(=O)N3[C@H](c4ccc(C)cc4)[C@@H](C)CC[C@H]3C(=O)OC)cc2)[C@@H](CO)O1,,"inconclusive: 18.4 µM [activator, single point]"
CCN(CC)CCNC(=O)/C(=N\O)c1ccccn1,,"inconclusive: 0.82 µM [activator, full curve, poor fit]"
Cc1cc2nc(N=C(N)N)nc(C)c2cc1C,,active: 18.4 µM
O=C(Nc1nnc(-c2ccccc2)o1)c1cc(Cl)sc1Cl,,inactive
Cc1nc(SCc2ccc(OCCC(C)C)cc2)n[nH]1,,active: 23.1 µM
C=CCOc1ccc(/C=N/NC(C)=O)cc1OCC,,inactive
S=C(Nc1ccc(Cl)cc1)NC1CCCCC1,,inactive
CCCc1c(C)nn(C(=O)/C(C#N)=N/Nc2ccccc2[N+](=O)[O-])c1C,,inactive
Cc1ccc(NS(=O)(=O)Cc2ccccc2)cc1Cl,,"inconclusive: 8.2 µM [activator, partial curve, poor fit]"
COCCn1c(N)c(C(=O)c2cccc(S(=O)(=O)N3CCCCCC3)c2)c(=O)[nH]c1=O,,"inconclusive: 6.51 µM [activator, single point]"
COc1cc(/C=N/NC(=O)CNC(=O)/C=C/c2ccco2)cc(OC)c1OC,,"inconclusive: 0.562 µM [activator, full curve, poor fit]"
COc1ccc(C2=CC(=O)OC(C)(c3ccccc3)O2)cc1 (centres undefined),,"inconclusive: 29.1 µM [activator, partial curve, poor fit]"
Cc1ccc(S(=O)(=O)Cc2ccc(C(=O)N3CCN(c4ccc(F)cc4)CC3)o2)cc1,,"inconclusive: 29.1 µM [activator, single point]"
CCOC(=O)c1cc([N+](=O)[O-])sc1NC(=O)c1ccc(S(=O)(=O)N2CC3(C)CC2CC(C)(C)C3)cc1 (centres undefined),,"inconclusive: 4.11 µM [activator, full curve, poor fit]"

SMILES,re-replication activation,Potency
Cc1cccc(OCc2n[nH]c(=S)n2-c2ccccc2)c1,,inactive
COC(=O)c1ccc(Nc2nnc(-c3ccc(C)c(S(=O)(=O)NCC4CCCO4)c3)c3ccccc23)cc1 (centres undefined),,inactive
COc1ccc(C(=O)N2CCN(CCc3ccccc3)CC2)cc1[N+](=O)[O-],,inactive
CN(Cc1ccccc1F)Cc1cc(=O)oc2cc(O)c(Cl)cc12,,"inconclusive: 9.2 µM [activator, partial curve]"
C=CCn1cc(/C=C/c2cc[n+](C)cc2)c2ccccc21,,"inconclusive: 25.9 µM [activator, single point]"
Oc1ccc(F)c2cccnc12,,"inconclusive: 20.6 µM [activator, single point]"
CCN1CCN(c2cc(C)c3cc(NC(=S)N4CCCC(C)C4)ccc3n2)CC1 (centres undefined),,"inconclusive: 29.1 µM [activator, single point]"
CCn1nc(-c2ccccc2)c2nc3ccccc3nc21,,"inconclusive: 5.17 µM [activator, full curve, poor fit]"
COC1CCCN(C(=O)c2cccc(OC3CCN(S(=O)(=O)N(C)C)CC3)c2)C1 (centres undefined),,"inconclusive: 3.26 µM [activator, partial curve, poor fit]"
CCc1nnc(NC(=O)/C=C/c2cccs2)s1,,inactive
O=C(C=P(c1ccccc1)(c1ccccc1)c1ccccc1)c1ccccc1-c1ccccc1C(=O)C=P(c1ccccc1)(c1ccccc1)c1ccccc1,,active: 13 µM
S=C(Nc1ccccc1Cl)NC1CCN(Cc2ccccc2)CC1,,inactive
CCN(CC)S(=O)(=O)c1ccc2[nH]c(=O)cc(C(=O)NCC3CCCO3)c2c1 (centres undefined),,"inconclusive: 11.6 µM [activator, partial curve, poor fit]"
CCOc1ccc2oc(C(=O)NNC(=O)c3ccccc3O)c(C)c2c1,,"inconclusive: 18.4 µM [activator, single point]"
Cc1ccc(NCCC(=O)c2cccc([N+](=O)[O-])c2)cc1,,"inconclusive: 4.11 µM [activator, full curve]"
COc1ccc(N2CCN(C(=O)Cc3ccc(Br)cc3)CC2)cc1,,inactive
CC1CCC(NC(=O)c2cc(S(=O)(=O)N3CCCCC3)c[nH]2)CC1 (centres undefined),,"inconclusive: 16.4 µM [activator, partial curve, poor fit]"
C=CCn1c(SCc2ccc(C(=O)Nc3nccs3)cc2)nnc1-c1ccc(C)c(Cl)c1,,"inconclusive: 29.1 µM [activator, single point]"
CCOc1ccc(-c2cn(S(=O)(=O)c3cccc4nsnc34)nc2N)cc1,,"inconclusive: 16.4 µM [activator, single point]"
COCOc1cc(O)c2c(=O)c(OCOC)c(-c3ccc(OCOC)c(OCOC)c3)oc2c1,,"inconclusive: 0.231 µM [activator, full curve, poor fit]"
CC(=O)Oc1ccc(-c2csnn2)cc1,,inactive
Cc1cc(C)cc(N(CCC(=O)O)S(=O)(=O)c2ccc3ccccc3c2)c1,,"inconclusive: 9.2 µM [activator, partial curve, poor fit]"

# For reference, two of the compounds above:
SMILES,re-replication activation,Potency
CCOc1ccc2oc(C(=O)NNC(=O)c3ccccc3O)c(C)c2c1,,"inconclusive: 18.4 µM [activator, single point]"
Cc1ccc(NCCC(=O)c2cccc([N+](=O)[O-])c2)cc1,,"inconclusive: 4.11 µM [activator, full curve]"
